Measurements reported in PubChem BioAssay AID1224830 (NIAID, 2016)
Here is a random part of about 18,000 reagents tested. In the full data, about 2,900 (16%) were called active. 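Calls are made per well; low scores hint the gene aids the LPS response, high scores that it dampens it.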 Entries without a mark were called inactive. Repeated entries: four replicate wells of each siRNA pool.

- Aim: 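Host factors that control LPS-induced TNF expression in human macrophages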 (primary screen)
- Cell system: human THP-1 monocytic leukaemia cells, TNF dual-luciferase reporter clone, PMA-differentiated to macrophage-like cells
- Knock-down reagent: siRNA pool against human genes, 50 nM
- Duration: LPS for 4 h, given about 3 days after siRNA transfection
- Treatment: bacterial LPS (TLR4 ligand), 10 ng/ml
- Detection: 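Ratio of firefly to renilla light, scaled to the plate median and expressed as a robust z-score per replicate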
- Scale: TNF reporter robust z-score: higher = stronger TNF reporter response to LPS
- Rule for the call: 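Each well counts as active if its z-score is over 2.8 or under -1.5; controls are left without a call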

gene	PubChem SID	TNF reporter robust z-score
CEP290	SID315459687	-0.22
CEP290	SID315459687	-0.5
CEP290	SID315459687	-0.11
CEP290	SID315459687	0.8
ZNF384	SID315462923	-1.12
ZNF384	SID315462923	-1.02
ZNF384	SID315462923	-1.29
ZNF384	SID315462923	-1.24
SPATA21	SID315464347	-0.34
SPATA21	SID315464347	-0.04
SPATA21	SID315464347	0
SPATA21	SID315464347	0.31
ZNF223	SID315452288	-0.11
ZNF223	SID315452288	-0.06
ZNF223	SID315452288	-1.29
ZNF223	SID315452288	0.15
SERPINB6	SID315450571	-0.32
SERPINB6	SID315450571	0
SERPINB6	SID315450571	-0.4
SERPINB6	SID315450571	0.44
DDX19B	SID315454730	-0.29
DDX19B	SID315454730	0.63
DDX19B	SID315454730	-0.21
DDX19B	SID315454730	0.57
FSTL1	SID315454656	-0.89
FSTL1	SID315454656	0.71
FSTL1	SID315454656	-0.1
FSTL1	SID315454656	-0.55
RITA1	SID315460586	0.13
RITA1	SID315460586	1.6
RITA1	SID315460586	1.39
RITA1	SID315460586	0.82
TRAPPC9	SID315460060	0.94
TRAPPC9	SID315460060	1.61
TRAPPC9	SID315460060	-0.55
TRAPPC9	SID315460060	-0.24
SRBD1	SID315457432	-0.5
SRBD1	SID315457432	-0.15
SRBD1	SID315457432	-0.21
SRBD1	SID315457432	0.32
FNBP1	SID315454954	3.73 (active)
FNBP1	SID315454954	1.68
FNBP1	SID315454954	0.29
FNBP1	SID315454954	0.08
LTK	SID315449820	-1.1
LTK	SID315449820	-0.34
LTK	SID315449820	-0.6
LTK	SID315449820	0.11
VPS41	SID315455902	-0.52
VPS41	SID315455902	-0.24
VPS41	SID315455902	-0.63
VPS41	SID315455902	0.58
ZNF813	SID315461678	-0.23
ZNF813	SID315461678	-0.13
ZNF813	SID315461678	-0.91
ZNF813	SID315461678	-0.7
ZNF433	SID315462771	8.83 (active)
ZNF433	SID315462771	0.94
ZNF433	SID315462771	1.46
ZNF433	SID315462771	2.03
RTP1	SID315461911	0.56
RTP1	SID315461911	0.13
RTP1	SID315461911	1.5
RTP1	SID315461911	1.13
KLF10	SID315451873	-0.11
KLF10	SID315451873	0.54
KLF10	SID315451873	-0.03
KLF10	SID315451873	-1.13
TNFRSF9	SID315449490	-0.92
TNFRSF9	SID315449490	0.44
TNFRSF9	SID315449490	-1.07
TNFRSF9	SID315449490	-0.64
NR2E3	SID315453741	0.28
NR2E3	SID315453741	0.85
NR2E3	SID315453741	0.48
NR2E3	SID315453741	0.21
NME7	SID315456217	-1.16
NME7	SID315456217	-0.12
NME7	SID315456217	-0.65
NME7	SID315456217	-0.61

Next part; the last 7 above are carried over.
gene	PubChem SID	TNF reporter robust z-score
NR2E3	SID315453741	0.85
NR2E3	SID315453741	0.48
NR2E3	SID315453741	0.21
NME7	SID315456217	-1.16
NME7	SID315456217	-0.12
NME7	SID315456217	-0.65
NME7	SID315456217	-0.61
APP	SID315447364	-0.69
APP	SID315447364	-1.26
APP	SID315447364	3.51 (active)
APP	SID315447364	-0.48
TRIM26	SID315452263	-0.99
TRIM26	SID315452263	0.99
TRIM26	SID315452263	0.67
TRIM26	SID315452263	0.18
CALHM4	SID315463283	-0.27
CALHM4	SID315463283	0.79
CALHM4	SID315463283	0.02
LYSMD3	SID315461341	-1.93 (active)
LYSMD3	SID315461341	-1.88 (active)
LYSMD3	SID315461341	-2.03 (active)
LYSMD3	SID315461341	-1.81 (active)
PPM1F	SID315453449	-0.97
PPM1F	SID315453449	-0.02
PPM1F	SID315453449	0.76
PPM1F	SID315453449	1.33
PIK3R5	SID315455309	0.28
PIK3R5	SID315455309	0.04
PIK3R5	SID315455309	-0.7
PIK3R5	SID315455309	0.33
RTL5	SID315464086	-0.39
RTL5	SID315464086	0.07
RTL5	SID315464086	-0.06
RTL5	SID315464086	0.41
FOXN3	SID315447906	-0.13
FOXN3	SID315447906	-0.16
FOXN3	SID315447906	0.26
FOXN3	SID315447906	-0.11
C1QTNF1	SID315461268	0.08
C1QTNF1	SID315461268	-0.69
C1QTNF1	SID315461268	0.03
C1QTNF1	SID315461268	0.63
SLC10A3	SID315452451	-0.55
SLC10A3	SID315452451	-0.81
SLC10A3	SID315452451	-1.25
SLC10A3	SID315452451	-1.59 (active)
CAPNS1	SID315447693	-0.19
CAPNS1	SID315447693	1.01
CAPNS1	SID315447693	0.38
CAPNS1	SID315447693	0.24
RAD23A	SID315451028	0.28
RAD23A	SID315451028	0.17
RAD23A	SID315451028	0.29
RAD23A	SID315451028	0.71
SLC25A44	SID315453471	-1.49
SLC25A44	SID315453471	-1.54 (active)
SLC25A44	SID315453471	-1.63 (active)
SLC25A44	SID315453471	-1.29
KIF2B	SID315460434	-0.56
KIF2B	SID315460434	0.04
KIF2B	SID315460434	0.77
KIF2B	SID315460434	1.02
LCE3D	SID315460437	-0.29
LCE3D	SID315460437	0.91
LCE3D	SID315460437	-0.74
LCE3D	SID315460437	-0.04
HOXA1	SID315449264	0.03
HOXA1	SID315449264	-1.32
HOXA1	SID315449264	-1.46
HOXA1	SID315449264	-1.25
